Reference: the supplement of paper PMC4604168 (melanoma cell lines)
Some of the results follow. Repeats are few or missing, and single values can be far off.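 Cells were imaged in 1,536-well plates, and nuclei stained with an antibody against cleaved PARP were counted against all DNA-stained nuclei to give the apoptosis fraction. Screening doses were chosen to leave most cells alive, and resting and induced cleaved-PARP levels differ strongly between cell lines.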

Columns and labels:
Test in all cases: cleaved PARP positive nuclei fraction relative to DMSO control; melanoma cells; higher = more apoptosis
Settings in all cases: library dose: low library concentration; 72 h
MZ2-MEL = system: MZ2-MEL
MeWo = system: MeWo
RPMI7951 = system: RPMI7951
RVH-421 = system: RVH-421
SkMel28 = system: SkMel28
SkMel2 = system: SkMel2
SkMel30 = system: SkMel30
UACC62 = system: UACC62
WM115 = system: WM115
WM1716 = system: WM1716
WM1745 = system: WM1745
WM3526 = system: WM3526
WM3619 = system: WM3619
WM451Lu = system: WM451Lu

Structure (SMILES) | cleaved PARP positive nuclei fraction (MZ2-MEL) [%] | cleaved PARP positive nuclei fraction (MeWo) [%] | cleaved PARP positive nuclei fraction (RPMI7951) [%] | cleaved PARP positive nuclei fraction (RVH-421) [%] | cleaved PARP positive nuclei fraction (SkMel28) [%] | cleaved PARP positive nuclei fraction (SkMel2) [%] | cleaved PARP positive nuclei fraction (SkMel30) [%] | cleaved PARP positive nuclei fraction (UACC62) [%] | cleaved PARP positive nuclei fraction (WM115) [%] | cleaved PARP positive nuclei fraction (WM1716) [%] | cleaved PARP positive nuclei fraction (WM1745) [%] | cleaved PARP positive nuclei fraction (WM3526) [%] | cleaved PARP positive nuclei fraction (WM3619) [%] | cleaved PARP positive nuclei fraction (WM451Lu) [%]
Cc1cn(-c2cc(NC(=O)c3ccc(C)c(Nc4nccc(-c5cccnc5)n4)c3)cc(C(F)(F)F)c2)cn1 [nilotinib] + CN(c1ncccc1CNc1nc(Nc2ccc3c(c2)CC(=O)N3)ncc1C(F)(F)F)S(C)(=O)=O [PF562271] (first compound 0.2 µM, partner dose 0.08 µM) | 204 | 139 | 89.3 | 34.3 | 164 | 255 | 171 | 216 | 111 | 411 | 146 | 80.1 | 71.5 | 95.2
CC[C@]1(O)C[C@H]2CN(CCc3c([nH]c4ccccc34)[C@@](C(=O)OC)(c3cc4c(cc3OC)N(C=O)[C@H]3[C@@](O)(C(=O)OC)[C@H](OC(C)=O)[C@]5(CC)C=CCN6CC[C@]43[C@@H]65)C2)C1 [vincristine] + Cc1cc(Nc2cc(N3CCN(C)CC3)nc(/C=C/c3ccccc3)n2)n[nH]1 [ENMD2076] (first compound 0.0001 µM, partner dose 0.04 µM) | 85.5 | 274 | 165 | 40.3 | 133 | 88.7 | 420 | 393 | 1490 | 245 | 183 | 60.8 | 177 | 197
CCCCCCCCCCCCCCCCCCOP(=O)([O-])OC1CC[N+](C)(C)CC1 [Perifosine] + CCN(CC)CCNC(=O)c1c(C)[nH]c(/C=C2\C(=O)Nc3ccc(F)cc32)c1C [sunitinib] (first compound 0.4 µM, partner dose 0.4 µM) | 85.3 | 138 | 137 | 304 | 60.8 | 56.9 | 93.7 | 165 | 211 | 79.1 | 98.6 | 218 | 149 | 62.1
O=c1[nH]nc(Sc2ncc([N+](=O)[O-])s2)n1-c1ccc2c(c1)OCCO2 + NC1(c2ccc(-c3nc4ccn5c(=O)[nH]nc5c4cc3-c3ccccc3)cc2)CCC1 [MK2206] (first compound 0.2 µM, partner dose 0.4 µM) | 97 | 117 | 134 | 40 | 268 | 99.7 | 54.6 | 196 | 160 | 33.2 | 97.4 | 77.3 | 108 | 182
O=C(/C=C/c1cccnc1)NCCCCC1CCN(C(=O)c2ccccc2)CC1 + C=C(c1ccc(C(=O)O)cc1)c1cc2c(cc1C)C(C)(C)CCC2(C)C [Bexarotene] (first compound 0.01 µM, partner dose 2 µM) | 539 | 130 | 198 | 172 | 104 | 2080 | 30.4 | 231 | 73.4 | 41.4 | 89.6 | 121 | 148 | 197
Cc1ccc(Nc2nccc(N(C)c3ccc4c(C)n(C)nc4c3)n2)cc1S(N)(=O)=O [Pazopanib] + Cn1c(=O)n(-c2ccc(C(C)(C)C#N)cc2)c2c3cc(-c4cnc5ccccc5c4)ccc3ncc21 [NVP-BEZ235] (first compound 0.4 µM, partner dose 0.004 µM) | 27.7 | 708 | 202 | 201 | 104 | 76.3 | 219 | 109 | 226 | 2080 | 97.5 | 94.4 | 111 | 52.6
CCCCCCCCCCCCCCCCCCOP(=O)([O-])OC1CC[N+](C)(C)CC1 [Perifosine] + CC1(C)CCC(c2ccc(Cl)cc2)=C(CN2CCN(c3ccc(C(=O)NS(=O)(=O)c4ccc(N[C@H](CCN5CCOCC5)CSc5ccccc5)c(S(=O)(=O)C(F)(F)F)c4)cc3)CC2)C1 [ABT263] (first compound 0.4 µM, partner dose 0.4 µM) | 199 | 597 | 497 | 443 | 82.2 | 119 | 109 | 94.1 | 438 | 202 | 194 | 74.8 | 102 | 226
Cc1cc(Nc2cc(N3CCN(C)CC3)nc(Sc3ccc(NC(=O)C4CC4)cc3)n2)n[nH]1 [Tozasertib] + Cc1cn(-c2cc(NC(=O)c3ccc(C)c(Nc4nccc(-c5cccnc5)n4)c3)cc(C(F)(F)F)c2)cn1 [nilotinib] (first compound 0.006 µM, partner dose 0.2 µM) | 88.6 | 193 | 103 | 160 | 78 | 65.6 | 66.9 | 88.1 | 47 | 152 | 124 | 103 | 77 | 41.1
O=c1[nH]nc(Sc2ncc([N+](=O)[O-])s2)n1-c1ccc2c(c1)OCCO2 + Cc1ccc(Nc2nccc(N(C)c3ccc4c(C)n(C)nc4c3)n2)cc1S(N)(=O)=O [Pazopanib] (first compound 0.2 µM, partner dose 0.4 µM) | 41.9 | 16.7 | 169 | 34 | 73.3 | 19.2 | 50.4 | 146 | 79.5 | 111 | 97.9 | 166 | 106 | 94.3
N#CC[C@H](C1CCCC1)n1cc(-c2ncnc3[nH]ccc23)cn1 [ruxolitinib] + CC(=O)c1c(C)c2cnc(Nc3ccc(N4CCNCC4)cn3)nc2n(C2CCCC2)c1=O [palbociclib] (first compound 1 µM, partner dose 0.04 µM) | 129 | 108 | 61.5 | 59.5 | 72.3 | 61.4 | 88.7 | 135 | 162 | 130 | 113 | 123 | 119 | 304
Cc1cc(Nc2cc(N3CCN(C)CC3)nc(Sc3ccc(NC(=O)C4CC4)cc3)n2)n[nH]1 [Tozasertib] + CS(=O)(=O)c1ccc(C(=O)Nc2ccc(Cl)c(-c3ccccn3)c2)c(Cl)c1 [vismodegib] (first compound 0.006 µM, partner dose 1 µM) | 64.6 | 69.7 | 94.7 | 26.7 | 85.1 | 43.2 | 62 | 188 | 164 | 66.3 | 116 | 56.9 | 92.7 | 55.5
CC[C@]1(O)C[C@H]2CN(CCc3c([nH]c4ccccc34)[C@@](C(=O)OC)(c3cc4c(cc3OC)N(C=O)[C@H]3[C@@](O)(C(=O)OC)[C@H](OC(C)=O)[C@]5(CC)C=CCN6CC[C@]43[C@@H]65)C2)C1 [vincristine] + CN1CCN(c2ccc3nc(-c4c(N)c5c(F)cccc5[nH]c4=O)[nH]c3c2)CC1 [Dovitinib] (first compound 0.0001 µM, partner dose 0.1 µM) | 141 | 126 | 85.8 | 124 | 58.3 | 119 | 219 | 86.7 | 920 | 301 | 97.2 | 199 | 193 | 88.7
Cc1cn(-c2cc(NC(=O)c3ccc(C)c(Nc4nccc(-c5cccnc5)n4)c3)cc(C(F)(F)F)c2)cn1 [nilotinib] + C[C@]1(c2nc3c(C(N)=O)cccc3[nH]2)CCCN1 [Veliparib] (first compound 0.2 µM, partner dose 1.4 µM) | 56.4 | 91.8 | 56.5 | 100 | 83.8 | 28.1 | 94.1 | 112 | 92.2 | 141 | 131 | 103 | 193 | 90
N#CC[C@H](C1CCCC1)n1cc(-c2ncnc3[nH]ccc23)cn1 [ruxolitinib] + O=C(/C=C/c1cccnc1)NCCCCC1CCN(C(=O)c2ccccc2)CC1 [FK866] (first compound 1 µM, partner dose 0.01 µM) | 594 | 25.4 | 33.9 | 251 | 72.6 | 940 | 27.9 | 36.3 | 63.9 | 31.4 | 161 | 82.2 | 98 | 78.5
CC[C@]1(O)C[C@H]2CN(CCc3c([nH]c4ccccc34)[C@@](C(=O)OC)(c3cc4c(cc3OC)N(C=O)[C@H]3[C@@](O)(C(=O)OC)[C@H](OC(C)=O)[C@]5(CC)C=CCN6CC[C@]43[C@@H]65)C2)C1 [vincristine] + CC(C)C[C@H](NC(=O)[C@H](Cc1ccccc1)NC(=O)c1cnccn1)B(O)O [Bortezomib] (first compound 0.0001 µM, partner dose 0.001 µM) | 190 | 94.2 | 598 | 319 | 96.8 | 90.6 | 224 | 338 | 747 | 235 | 145 | 301 | 319 | 90.4
O=c1[nH]nc(Sc2ncc([N+](=O)[O-])s2)n1-c1ccc2c(c1)OCCO2 + CCCCCCCCc1ccc(CCC(N)(CO)CO)cc1 [fingolimod] (first compound 0.2 µM, partner dose 2 µM) | 94.3 | 40.8 | 85.4 | 62.7 | 44 | 38.1 | 81.1 | 91 | 62.9 | 39.4 | 96.7 | 108 | 94.3 | 192
O=c1[nH]nc(Sc2ncc([N+](=O)[O-])s2)n1-c1ccc2c(c1)OCCO2 + CCCS(=O)(=O)Nc1ccc(F)c(C(=O)c2c[nH]c3ncc(Cl)cc23)c1F [PLX4720] (first compound 0.2 µM, partner dose 0.08 µM) | 102 | 42.9 | 32.1 | 60.7 | 96.2 | 139 | 27.5 | 99.4 | 102 | 52.3 | 168 | 654 | 93 | 85
O=C(/C=C/c1cccnc1)NCCCCC1CCN(C(=O)c2ccccc2)CC1 + C[C@]1(c2nc3c(C(N)=O)cccc3[nH]2)CCCN1 [Veliparib] (first compound 0.01 µM, partner dose 1.4 µM) | 441 | 49.1 | 71 | 390 | 85.4 | 937 | 186 | 203 | 67.3 | 157 | 93.4 | 84.1 | 94.1 | 40.4
O=C(/C=C/c1cccnc1)NCCCCC1CCN(C(=O)c2ccccc2)CC1 + Cc1ccc(Nc2nccc(N(C)c3ccc4c(C)n(C)nc4c3)n2)cc1S(N)(=O)=O [Pazopanib] (first compound 0.01 µM, partner dose 0.4 µM) | 660 | 81.4 | 139 | 92.7 | 112 | 2600 | 58.5 | 116 | 104 | 73.6 | 114 | 73.6 | 238 | 75.6

Some of the entries above, set out differently:
Structure (SMILES),cleaved PARP positive nuclei fraction (MZ2-MEL) [%],cleaved PARP positive nuclei fraction (MeWo) [%],cleaved PARP positive nuclei fraction (RPMI7951) [%],cleaved PARP positive nuclei fraction (RVH-421) [%],cleaved PARP positive nuclei fraction (SkMel28) [%],cleaved PARP positive nuclei fraction (SkMel2) [%],cleaved PARP positive nuclei fraction (SkMel30) [%],cleaved PARP positive nuclei fraction (UACC62) [%],cleaved PARP positive nuclei fraction (WM115) [%],cleaved PARP positive nuclei fraction (WM1716) [%],cleaved PARP positive nuclei fraction (WM1745) [%],cleaved PARP positive nuclei fraction (WM3526) [%],cleaved PARP positive nuclei fraction (WM3619) [%],cleaved PARP positive nuclei fraction (WM451Lu) [%]
"O=C(/C=C/c1cccnc1)NCCCCC1CCN(C(=O)c2ccccc2)CC1 + C=C(c1ccc(C(=O)O)cc1)c1cc2c(cc1C)C(C)(C)CCC2(C)C [Bexarotene] (first compound 0.01 µM, partner dose 2 µM)",539,130,198,172,104,2080,30.4,231,73.4,41.4,89.6,121,148,197
"CC[C@]1(O)C[C@H]2CN(CCc3c([nH]c4ccccc34)[C@@](C(=O)OC)(c3cc4c(cc3OC)N(C=O)[C@H]3[C@@](O)(C(=O)OC)[C@H](OC(C)=O)[C@]5(CC)C=CCN6CC[C@]43[C@@H]65)C2)C1 [vincristine] + CN1CCN(c2ccc3nc(-c4c(N)c5c(F)cccc5[nH]c4=O)[nH]c3c2)CC1 [Dovitinib] (first compound 0.0001 µM, partner dose 0.1 µM)",141,126,85.8,124,58.3,119,219,86.7,920,301,97.2,199,193,88.7
"O=c1[nH]nc(Sc2ncc([N+](=O)[O-])s2)n1-c1ccc2c(c1)OCCO2 + CCCCCCCCc1ccc(CCC(N)(CO)CO)cc1 [fingolimod] (first compound 0.2 µM, partner dose 2 µM)",94.3,40.8,85.4,62.7,44,38.1,81.1,91,62.9,39.4,96.7,108,94.3,192
"O=C(/C=C/c1cccnc1)NCCCCC1CCN(C(=O)c2ccccc2)CC1 + Cc1ccc(Nc2nccc(N(C)c3ccc4c(C)n(C)nc4c3)n2)cc1S(N)(=O)=O [Pazopanib] (first compound 0.01 µM, partner dose 0.4 µM)",660,81.4,139,92.7,112,2600,58.5,116,104,73.6,114,73.6,238,75.6
